## Percent effect of library compounds

A: 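Whole-cell growth test on Mycobacterium tuberculosis, read after 3 days in glucose-containing 7H9 medium; the read-out is not stated. Tested at 500 µM. Direction is inferred from retests: higher values go with more growth inhibition. About 18,000 compounds were tested under these conditions; 7.9% (about 1,400) showed 50% or more at least once.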
B: 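Whole-cell growth test on Mycobacterium tuberculosis, read after 4 days in a medium based on cholesterol and the lipid DPPC; the read-out is not stated. Compounds at 500 µM. Higher reads as more growth inhibition (inferred: compounds with an IC50 in retests scored well above the rest). Of about 18,000 compounds tested this way, about 900 (5%) reached 50% or more in at least one test.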

Values are the deposited “Percent Effect”, in %. How 0% and 100% were set is not recorded. Most values in the screen are low, and negative values occur. Compounds were drawn at random from those tested, without regard to their results.

NC1CCN(c2ccccn2)C1 (configuration not stated) read A: 13.69%; B: 14.27%. Cc1cnc(CNS(=O)(=O)c2cc(Br)cnc2N)o1 read A: -3.283%; B: -8.031%. Result for c1snnc1CN1CCOCC2(CCOCC2)C1 was A: 4.781%; B: -2.334%. For Cc1ccc(C(N)CN2CCOCC2)cc1 (configuration not stated) the result was A: 73.72%; B: 57.64%. For COCc1ccccc1CS(N)(=O)=O the result was A: 1.35%; B: 1.196%. Result for Cc1ccc(S(=O)(=O)NCC(C)N)cc1Cl (configuration not stated) was A: 28.9%; B: 28.57%. Cn1c(SC2COC(=O)C2)nnc1-c1ccoc1 (configuration not stated) gave A: -0.1355%; B: 4.038%.

Result for COc1c(CNCc2cc(C)on2)c(C)nn1C was A: 13.91%; B: -0.8999%. With Cc1cccnc1NCCNC1CSCCSC1 the screen gave A: 65.28%; B: 42.42%. Result for COC(=O)N(C)CC(=O)Nc1ccc(C)cc1 was A: 24.73%; B: 10.91%. For Cc1cc(C)c(NC(=O)CN2CCN(C)CC2)c(C)c1 the result was A: 15.63%; B: 8.245%. For CCS(=O)(=O)NCCNC(=O)C1(C)CCCC1 the result was A: 14.25%; B: -2.26%. Result for NCCCc1nc2ccccc2o1 was A: 61.32%; B: 66.66%. Cc1c(C(=O)NCc2nnc3ccccn23)cnn1C read A: -5.552%; B: -9.35%.

For CC(C)Sc1ccccc1NS(=O)(=O)N(C)C the result was A: 65.87%; B: 52.19%. CC(C)C(C)(C#N)NC(=O)CNc1cccc(F)c1 (configuration not stated) gave A: 72.49%; B: 73.24%. CC(C)(C)C1CS(=O)(=O)CCN1 (configuration not stated) read A: -7.918%; B: -15.6%. CNC(=O)C(C)Sc1nnnn1-c1ccccc1C (configuration not stated) read A: 65.12%; B: 52.14%. Result for OC1CCNCc2ccccc21 (configuration not stated) was A: 35.84%; B: 18.93%. Cc1cnc(N2CCNCC2)s1 gave A: 16.93%; B: 0.8037%. CCCN1CCC(N2CCCC(CO)C2)CC1 (configuration not stated) gave A: 17.63%; B: 5.065%.

With CCC1CN(Cc2ccnc(N)c2)CCO1 (configuration not stated) the screen gave A: 23.98%; B: 10.01%. COc1ccc(F)c(F)c1C(=O)N1CCC(CN)C1 (configuration not stated) read A: 4.652%; B: -1.005%. Result for O=C(c1ccc(Cl)cc1)N1CCCNCC1 was A: 29.94%; B: 16.69%. For COc1ccc(C2COCCN2)cc1 (configuration not stated) the result was A: 15.8%; B: 4.614%. For O=C(NCCCF)N1CCN(Cc2ccncc2)CC1 the result was A: -8.536%; B: -7.816%. For CC(C)(C)c1cnc(CN2CCOCC2C(N)=O)o1 (configuration not stated) the result was A: 62.11%; B: 33.66%. Result for CC(C)(C)OCC(O)CN1CCOCC1 (configuration not stated) was A: -0.5031%; B: 4.526%.

N#Cc1cccc(/N=C2\CCCN2)c1 read A: 4.586%; B: 19.67%. For CCCC(O)(C(N)=O)c1ccccc1 (configuration not stated) the result was A: 37.5%; B: 35.27%. Cn1ccnc(NC(=O)NCCc2ccccn2)c1=O read A: -2.882%; B: -15.26%. With COC(=O)c1ccc(COc2ccccc2CO)o1 the screen gave A: 59.76%; B: 52.67%. COCCN(C)C(=O)c1ccc(CCC(C)(C)O)cc1 read A: 3.977%; B: 12.14%. For N#Cc1cccc(S(=O)(=O)N2CC(O)(C3CC3)C2)c1 the result was A: 24.13%; B: 9.015%. With C1COC(CN2CCCNCC2)C1 (configuration not stated) the screen gave A: 11.76%; B: -1.602%.

For NC(=O)C1CCN(CCCNC(=O)c2cn[nH]c2)CC1 the result was A: 1.379%; B: -1.25%. Result for CC(C)CCNC(=O)Cn1c(=O)oc2ccccc21 was A: 67.93%; B: 87.18%. Cc1ccc(S(=O)(=O)CCC(=O)NC(N)=O)cc1 gave A: 92.83%; B: 78.75%. CC(CO)(CO)NCc1cc2ccccc2s1 gave A: 5.287%; B: 7.246%. For Cn1cnc(S(=O)(=O)NC2CCCCNC2=O)c1Cl (configuration not stated) the result was A: 14.5%; B: -7.371%.

Data taken from ChEMBL document CHEMBL3988442, “University of Dundee, Small-Polar-MMV Screening Library” (2021).